Data on 2 molecules can be found in paper PMC4064043.

The chains behind the UniProt entries cited, without tags or fusion partners. Where a name states a change or a piece, a line headed by the entry shows the natural chain unless it says otherwise.
UniProt Q0JA29: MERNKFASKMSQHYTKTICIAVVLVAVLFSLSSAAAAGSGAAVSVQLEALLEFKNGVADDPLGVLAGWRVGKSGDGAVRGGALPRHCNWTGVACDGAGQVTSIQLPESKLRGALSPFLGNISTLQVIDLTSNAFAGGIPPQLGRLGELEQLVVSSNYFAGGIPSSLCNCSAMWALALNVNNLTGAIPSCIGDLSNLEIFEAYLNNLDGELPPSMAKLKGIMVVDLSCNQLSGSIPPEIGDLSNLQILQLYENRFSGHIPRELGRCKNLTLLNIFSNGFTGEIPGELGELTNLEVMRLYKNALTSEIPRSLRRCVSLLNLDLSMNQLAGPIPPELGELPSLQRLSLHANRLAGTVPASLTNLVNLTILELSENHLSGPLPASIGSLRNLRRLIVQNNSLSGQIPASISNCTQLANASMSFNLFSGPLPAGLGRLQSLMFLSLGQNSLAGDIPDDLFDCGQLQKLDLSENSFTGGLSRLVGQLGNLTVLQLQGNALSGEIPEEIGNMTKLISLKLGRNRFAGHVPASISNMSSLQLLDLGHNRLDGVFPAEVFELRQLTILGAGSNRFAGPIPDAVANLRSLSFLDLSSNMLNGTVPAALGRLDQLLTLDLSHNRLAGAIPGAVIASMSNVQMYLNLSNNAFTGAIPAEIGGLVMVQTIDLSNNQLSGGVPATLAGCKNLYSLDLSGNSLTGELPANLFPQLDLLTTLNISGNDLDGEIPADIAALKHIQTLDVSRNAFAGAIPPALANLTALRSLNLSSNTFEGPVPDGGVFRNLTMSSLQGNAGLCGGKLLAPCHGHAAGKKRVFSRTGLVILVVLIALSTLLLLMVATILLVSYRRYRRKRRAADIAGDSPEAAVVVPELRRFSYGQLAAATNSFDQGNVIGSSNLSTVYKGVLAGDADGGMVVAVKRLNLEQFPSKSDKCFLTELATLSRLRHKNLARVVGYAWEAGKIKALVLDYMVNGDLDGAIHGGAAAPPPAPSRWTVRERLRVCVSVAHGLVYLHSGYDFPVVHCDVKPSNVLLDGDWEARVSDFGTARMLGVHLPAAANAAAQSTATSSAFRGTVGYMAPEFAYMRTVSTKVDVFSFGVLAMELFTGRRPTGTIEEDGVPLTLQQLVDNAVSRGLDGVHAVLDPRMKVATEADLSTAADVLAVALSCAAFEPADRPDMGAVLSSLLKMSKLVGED

The target of assay [1] is intracellular domain of OsFLS2 (rice) (UniProt Q0JA29). Kind of assay: two-hybrid; Matchmaker LexA two-hybrid system (Clontech); yeast pEGY48/p8op-lacZ co-transformed with BD (LexA) and AD (B42, HA) vectors; blue colour indicates interaction.
Assay [2] deals with Myc–XA21 (rice). The assay can be described thus: co-IP; Myc–XA21 complex immunoprecipitated with agarose-conjugated anti-Myc antibody from leaves of cMyc–Xa21 rice plants, no treatment; Kitaake leaves as negative control; blots with anti-Myc and anti-OsSERK2.

These are yes or no findings as the source states them, for the method shown. A result given as binding can be weak or reduced; the word gives no strength. For some assays here: Binding seen in cells or lysates may run through a third protein.

On to “intracellular domain of OsSERK2 (from UniProt Q7XV05) (domain or fragment)”, for which the binding entry in assay [1] is reported as “binds”.

B1: OsSERK2 (rice somatic embryogenesis receptor kinase 2) (receptor, UniProt Q7XV05 32-628)
chain: NTEGDALYSLRQSLKDANNVLQSWDPTLVNPCTWFHVTCNPDNSVIRVDLGNAQLSGALVPQLGQLKNLQYLELYSNNISGTIPNELGNLTNLVSLDLYLNNFTGFIPETLGQLYKLRFLRLNNNSLSGSIPKSLTNITTLQVLDLSNNNLSGEVPSTGSFSLFTPISFANNKDLCGPGTTKPCPGAPPFSPPPPFNPPTPTVSQGDSKTGAIAGGVAAAAALLFAVPAIGFAWWRRRKPEEHFFDVPAEEDPEVHLGQLKRFSLRELQVATDNFSNKNILGRGGFGKVYKGRLADGSLVAVKRLKEERTPGGELQFQTEVEMISMAVHRNLLRLRGFCMTPTERLLVYPYMANGSVASRLRERQPNDPPLEWQTRTRIALGSARGLSYLHDHCDPKIIHRDVKAANILLDEDFEAVVGDFGLAKLMDYKDTHVTTAVRGTIGHIAPEYLSTGKSSEKTDVFGYGIMLLELITGQRAFDLARLANDDDVMLLDWVKGLLKEKKVEMLVDPDLQSGFVEHEVESLIQVALLCTQGSPMDRPKMSEVVRMLEGDGLAERWEEWQKVEVVRQEAELAPRHNDWIVDSTYNLRAMELSGPR
Turning to B1, the binding result in assay [2] is “binds”.
